PubChem BioAssay AID504784 – Drosophila RNAi Screening Center – 2011

- Aim: 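Search for regulators of lipid droplet storage in oleate-fed fly cells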 (primary screen)
- Cell system: Drosophila Kc167 embryonic cells
- Knock-down reagent: long dsRNA against Drosophila genes, about 250 ng dsRNA per well
- Duration: 4 days
- Challenge: cells fed 400 µM oleic acid bound to BSA
- Read-out: 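Cells imaged and segmented; ratio of lipid droplet area to nuclear area, log-transformed, then normalised as a B-score over the screen; higher means more stored lipid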
- Scale: droplet/nuclear area B-score: higher = more stored lipid (overstorage)
The screen tested about 17,000 reagents; this is a random part of those with a known target gene and a result. 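Each column is one replicate's B-score; the combined score over replicates was not deposited, so single values may mislead.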 Names joined by + are all predicted targets of the reagent. Further read-outs or replicates are left out here.

After knock-down of Agpat1 (1-Acylglycerol-3-phosphate O-acyltransferase 1) [DRSC19879], the record shows droplet/nuclear area B-score, replicate 1 = 0.0659.
After knock-down of Agpat1 (1-Acylglycerol-3-phosphate O-acyltransferase 1) [DRSC19880], the screen gave droplet/nuclear area B-score, replicate 1 = 0.154.
For loco (locomotion defects) [DRSC15202], the entry reads droplet/nuclear area B-score, replicate 1 = 0.17.
For loco (locomotion defects) [DRSC16989], the entry reads droplet/nuclear area B-score, replicate 1 = 4.83.
For Spp (Signal peptide peptidase) [DRSC00328], the values are droplet/nuclear area B-score, replicate 1 = 0.0218.
CG13978 [DRSC14720] gave droplet/nuclear area B-score, replicate 1 = -0.897.
For Ir7c (Ionotropic receptor 7c) [DRSC18007] the deposit lists droplet/nuclear area B-score, replicate 1 = 1.86.
Knock-down of CG42808 + CG42807 [DRSC06370] resulted in: droplet/nuclear area B-score, replicate 1 = 0.295.
Silencing of CG42808 + CG42807 [DRSC06966] came out at: droplet/nuclear area B-score, replicate 1 = 0.433.
Obp47b + CG7741 [DRSC06330] scored droplet/nuclear area B-score, replicate 1 = 0.432.
With knock-down of Uba4 (Ubiquitin-like activating enzyme 4) [DRSC02194], the screen gave droplet/nuclear area B-score, replicate 1 = -1.63.
milt (milton) [DRSC00965] scored droplet/nuclear area B-score, replicate 1 = -0.407.
With knock-down of milt (milton) [DRSC00966] the results were droplet/nuclear area B-score, replicate 1 = -1.42.
Against milt (milton) [DRSC02281] the deposit lists droplet/nuclear area B-score, replicate 1 = 0.00924.
With knock-down of CG7227 [DRSC03032] the results were droplet/nuclear area B-score, replicate 1 = -0.0175.
With knock-down of CG5255 [DRSC15754], the screen gave droplet/nuclear area B-score, replicate 1 = -0.659.
Echs1 (Enoyl-CoA hydratase, short chain 1) [DRSC06999] scored droplet/nuclear area B-score, replicate 1 = -0.591.
Against CG18659 [DRSC06784], the values are droplet/nuclear area B-score, replicate 1 = -0.389.
Knock-down of plx (pollux) [DRSC12260] resulted in: droplet/nuclear area B-score, replicate 1 = -0.751.
Silencing of plx (pollux) [DRSC12385] came out at: droplet/nuclear area B-score, replicate 1 = -2.19.
plx (pollux) [DRSC22683] showed droplet/nuclear area B-score, replicate 1 = -2.12.
For dmpd (dampened) [DRSC06092], the entry reads droplet/nuclear area B-score, replicate 1 = 0.28.
Depletion of IntS4 (Integrator 4) [DRSC17810] gave: droplet/nuclear area B-score, replicate 1 = 4.06.
CG32987 [DRSC22373] gave droplet/nuclear area B-score, replicate 1 = -1.8.
Silencing of Naus (Nausicaa) [DRSC06011] gave: droplet/nuclear area B-score, replicate 1 = 0.0176.
With knock-down of Naus (Nausicaa) [DRSC06469], the screen gave droplet/nuclear area B-score, replicate 1 = 0.24.
Knock-down of l(2)k09022 (lethal (2) k09022) [DRSC02108] gave: droplet/nuclear area B-score, replicate 1 = 0.02.

A run of entries taken from the entries so far, for reference:
Obp47b + CG7741 [DRSC06330]: droplet/nuclear area B-score, replicate 1 = 0.432
Uba4 (Ubiquitin-like activating enzyme 4) [DRSC02194]: droplet/nuclear area B-score, replicate 1 = -1.63
milt (milton) [DRSC00965]: droplet/nuclear area B-score, replicate 1 = -0.407
